From patent US6743923B2, “Antirheumatic agent” (Shionogi & Co., Ltd., priority 1997, dated 2004)
At least one compound was matched to its structure with a doubt left.

Experiments:
Type in all cases: in vivo
blood NOx level = test: Suppressive effect on blood NOx level in adjuvant arthritis rat
Protocol: An adjuvant arthritis model was prepared in the same manner as above, and the compounds were orally administered to the animals for 28 days beginning on the day before the adjuvant injection. Blood was then collected under anesthetization and the serum was ultracentrifuged. The supernatant was ultrafiltrated to prepare a sample for NOx (nitrite+nitrate) measurement.

NZB/KN mouse = test: Inhibitory effect against bone destruction in spontaneous rheumatic model NZB/KN mouse; conditions: 30 mg/kg/day
Text: To male NZB/KN mice, in which a human RA-like pathology arises spontaneously due to their immunologically abnormal background, was orally administered Compound Ia once in a day (five times a week) for six months beginning at two-month-age. The mice which reached six month old (some were eight month old) were full-length radiographed under anesthetization and predetermined conditions using a soft X-ray generator (OM-55, Omic). According to the method of Nakamura, et. al. [Arthritis. Rheum., 34, 171-179 (1991)], the number of the lesions observed in the bones and articular regions in the whole body were counted on the basis of the soft X-ray radiographed films, and the total number of the observed lesions were defined as the number of the bone disorders in the animal. The results were shown using mean±standard deviation, and significance test was performed according to Dunnett-t test (*p<0.05, ** p<0.01: vs. vehicle group).

[1] = system: articular destruction in adjuvant arthritis; test: Rat adjuvant arthritis: inhibitory effect against articular destruction (X-ray score)
Protocol: A rat adjuvant arthritis model, which is commonly used in an in vivo evaluation for antirheumatic agents, was employed in this evaluation. To prepare an arthritis model, heat-killed cells of Mycobacterium butyricum (Difco) were suspended in mineral oil, and a rat was intradermally injected with 0.05 mL of 1% solution of the suspension at the plantar of left hind leg.
The right and left hind legs of the arthritis rats used in the above experiments were radiographed using a soft X-ray radiation and evaluated by the X-ray observation score for the bone destruction in the arthrosis. The effects were numerically evaluated by grading the articular destruction from 0 to 3 (0: normal; 1: low degree of articular and bone destruction; 2: medium degree of articular and bone destruction, and neogenesis of cartilage; 3: strong articular and bone destruction), and the efficacy in the drug-administered group was determined in comparison with the vehicle-administered group according to Wilcoxon U-test (*p<0.05, **p<0.01)(FIG. 2).

[2] = system: IL-6 level in articular tissue; test: Rat adjuvant arthritis: repressive effect on the IL-6 level in articular tissue; conditions: 10 mg/kg/day
Protocol: Another adjuvant arthritis model animal was prepared apart from the above experiments, and a compound was orally administered to the animal for 18 days after the adjuvant injection. The non-injected leg was then amputated under anesthetization, epidermis of the amputated leg was ablated, the leg was frozen in liquid nitrogen, and the arthrosis part was crushed by a crushing machine. To a measured quantity of the crushed arthrosis, 3 mL of ice-cold PBS was added and homogenized with a homogenizer under ice-cooling. The resultant homogenate was centrifuged at 4° C. for 20 minutes at 3,000 rpm to collect the supernatant, which was then passed through a 0.45 μm filter to prepare a sample. The sample and MH60 BSF2 cells (derived from mouse, require IL-6) were incubated on a 96-well plate under defined conditions, and the absorbance was measured at two wave lengths of 540 nm and 690 nm. The IL-6 level in the sample was calculated based on the standard curve prepared using a recombinant human IL-6.

[3] = system: serum amyloid protein (SAP); test: Effect on MRL/l mouse blood acute phase protein SAP; conditions: 10 mg/kg/day, five times a week
Protocol: After the last administration of the compound, blood was collected under anesthetization, and the serum was used for SAP measurement. SAP has been used as a marker for rheumatism. A 96-well plate was coated with rabbit anti-mouse SAP serum, and the serum to be tested was then added to the plate and incubated for 2 hours. After addition of sheep anti-mouse SAP serum, a rabbit anti-sheep IgG antibody labeled with alkaline phosphatase and then a substrate were added to the plate, and OD of developed color was measured at 405 nm.

NC(=O)N1C(=O)/C(=C(\O)c2cccs2)c2cc(Cl)ccc21 [Tenidap]
effect on the increase of blood NOx level (blood NOx level; 10 mg/kg/day): significant effect
effect on the increase of blood NOx level (blood NOx level; 30 mg/kg/day): mere inhibitory tendency
effect on the bone destruction (NZB/KN mouse): not effective
inhibitory effect against the articular destruction ([1]; 3 mg/kg/day, non-injected leg): significant inhibitory effect
inhibitory effect against the articular destruction relative to Compound Ia ([1]; adjuvant-injected leg): comparable to that of Compound Ia
inhibitory effect against the articular destruction relative to Compound Ia ([1]; non-injected leg): lower than that of Compound Ia
effect against the increase of the IL-6 level in the articular tissue [2]: significant inhibitory effect
effect on blood SAP [3]: no significant results
